Experimental data reported in PubChem BioAssay AID1671188 (National Center for Advancing Translational Sciences (NCATS), 2021).
The campaign covered roughly 100,000 compounds. About 250 (0.25%) were called active. Listed are the inconclusive results; actives and inactives stand elsewhere. Calls follow the shape of the dose curve; as a rule, active = well fitted inhibition curve with a large enough effect; inconclusive = small, poorly fitted or top-dose-only effect; inactive = flat fitted curve, though single readings scatter.

Protein sequences, listed by entry. Tags and fused reporters are not part of them.
UniProt Q8TD30, whole entry: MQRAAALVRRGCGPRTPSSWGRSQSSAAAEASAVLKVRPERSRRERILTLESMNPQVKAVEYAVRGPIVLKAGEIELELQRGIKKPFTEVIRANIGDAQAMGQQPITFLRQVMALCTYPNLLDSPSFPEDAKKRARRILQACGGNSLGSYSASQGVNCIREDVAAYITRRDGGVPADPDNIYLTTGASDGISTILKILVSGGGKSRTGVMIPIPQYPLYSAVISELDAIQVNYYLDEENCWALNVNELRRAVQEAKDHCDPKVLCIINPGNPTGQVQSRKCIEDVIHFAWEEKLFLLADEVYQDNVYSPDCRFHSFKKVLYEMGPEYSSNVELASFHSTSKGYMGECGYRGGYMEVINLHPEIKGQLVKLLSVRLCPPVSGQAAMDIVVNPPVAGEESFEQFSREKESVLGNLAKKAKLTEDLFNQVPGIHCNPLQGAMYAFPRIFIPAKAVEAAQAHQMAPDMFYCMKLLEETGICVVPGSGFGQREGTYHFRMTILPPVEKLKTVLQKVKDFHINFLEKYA

target: Alanine aminotransferase 2 (Homo sapiens) (UniProt Q8TD30); test: Primary qHTS assay for inhibitors of Glutamate pyruvate transaminase 2 (GPT2); conditions: Recombinant GPT2, coupled pyruvate oxidase/HRP Amplex Red fluorescence; also: nearly all actives have a fitted effect of over 60% in size
Method: Assay Provider: Zhenghe John Wang Ph.D.
Case Western Reserve University, Cleveland OH
Glutamate pyruvate transaminase 2 (GPT2) catalyzes the reversible transamination of glutamate and pyruvate to provide a-ketoglutarate and alanine. We have optimized an assay for GPT2 enzymatic activity that couples pyruvate formation to detection of fluorescence using an established pyruvate oxidase/horseradish peroxidase / Amplex Red system.
Screening conditions were 250uM a-KG, 2mM L-alanine, and 10ng/uL GPT2 in […] of solution; 10uL of Amplex reaction mix (outlined below) were added so that final concentrations of Amplex reagents in 50uL were 0.2mM ThPP, 0.2U/mL PO and HRP, and 50uM Amplex.
NOTE: The volume of GPT2 in the system depends on the activity of it. The activity is different every batch. You need to test the activity before the assay. For full plate assay with automation, plate 20uL of GPT2 buffer to pin into, then add 10uL of GPT2 dilution followed immediately by 10uL of substrate dilution. 2 Columns of the plate were devoted to GPT2 buffer ([…] PH7.5, 0.0001% Tween) + 50uM AOA (known GPT2 inhibitor) to serve as a positive control. Complete the assay as normal. Amplex-red buffer: […] PH7.5, 1 mM EDTA, 1 mM MgCl2.
1. […]
5. Incubate for 30 minutes at room temperature in the dark, then image using AM_Amplex_Fluorescence on plate reader nearest the window.
Potency is read from the fitted curve at half-maximal effect.

Structure (SMILES)	Potency
CCOP(=O)(CC)Oc1ccc([N+](=O)[O-])cc1 (configuration not stated)	inconclusive: 6.31 µM
C/C1=C2N=C(/C=C3N=C(/C(C)=C4\[N-][C@@](C)([C@@H]5N=C1[C@](C)(CCC(=O)NC[C@@H](C)OP(=O)([O-])O[C@H]1[C@@H](O)[C@@H](n6cnc7cc(C)c(C)cc76)O[C@@H]1CO)[C@H]5CC(N)=O)[C@@](C)(CC(N)=O)[C@@H]4CCC(N)=O)[C@@](C)(CC(N)=O)[C@@H]\3CCC(N)=O)C(C)(C)[C@@H]/2CCC(N)=O.[C-]#N.[Co+3]	inconclusive: 0.708 µM
